Experimental data: PubChem BioAssay AID1259308 (NCATS, 2017)
This is one part, drawn at random, of about 59,000 deposited reagents. About 1,510 of them (2.6%) were called active. 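Calls use total luciferase alone and ignore viability, so some active siRNAs may act by altering cell number.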 Reagents against one gene are numbered here. Further read-outs or replicates are left out here. No sequences are given here.

Aim: 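Candidate targets for better recombinant protein yield in mammalian cells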 (primary screen)
System: human HEK293 embryonic kidney cells stably expressing firefly luciferase (HEK-CMV-Luc2-Hygro)
Knock-down reagent: single siRNA against human genes, 0.8 pmol siRNA per well
Timing: 72 h
Detection: 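Luciferase light (ONE-Glo) measured on one replicate plate set and viability (CellTiter-Glo) on the other, scaled to a negative control siRNA, with robust z-scores and luciferase per cell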
Direction: total luciferase, z-score and total luciferase, % of control: higher = more reporter protein produced
Active means: 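An siRNA counts as active if its total luciferase robust z-score exceeds 3; genes with two or more such siRNAs out of three were retested with fresh siRNAs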
Meaning of the calls: active = raised luciferase; inactive = no rise

| Target gene | reagent no. | total luciferase, z-score | total luciferase, % of control | Outcome |
| --- | --- | --- | --- | --- |
| MRPS12 (mitochondrial ribosomal protein S12) | 1 | 0.307 | 88 | inactive |
| MRPS12 (mitochondrial ribosomal protein S12) | 2 | 0.17 | 85.3 | inactive |
| MRPS12 (mitochondrial ribosomal protein S12) | 3 | -0.439 | 73.2 | inactive |
| WFDC3 (WAP four-disulfide core domain 3) | 1 | -0.407 | 73.8 | inactive |
| WFDC3 (WAP four-disulfide core domain 3) | 2 | -0.25 | 76.9 | inactive |
| WFDC3 (WAP four-disulfide core domain 3) | 3 | 0.0416 | 82.7 | inactive |
| OGFOD3 | 1 | 1.31 | 108 | inactive |
| OGFOD3 | 2 | -0.549 | 71 | inactive |
| OGFOD3 | 3 | -0.18 | 78.3 | inactive |
| SNX20 (sorting nexin 20) | 1 | -2.78 | 26.6 | inactive |
| SNX20 (sorting nexin 20) | 2 | 0.577 | 93.4 | inactive |
| SNX20 (sorting nexin 20) | 3 | -0.995 | 62.1 | inactive |
| FBXO11 (F-box protein 11) | 1 | -0.563 | 70.7 | inactive |
| FBXO11 (F-box protein 11) | 2 | -0.219 | 77.5 | inactive |
| FBXO11 (F-box protein 11) | 3 | 0.784 | 97.5 | inactive |
| BBS12 (Bardet-Biedl syndrome 12) | 1 | 2.25 | 127 | inactive |
| BBS12 (Bardet-Biedl syndrome 12) | 2 | -0.708 | 67.8 | inactive |
| BBS12 (Bardet-Biedl syndrome 12) | 3 | 0.599 | 93.8 | inactive |

4 consecutive reagents already listed, quoted:
| Target gene | reagent no. | total luciferase, z-score | total luciferase, % of control | Outcome |
| --- | --- | --- | --- | --- |
| WFDC3 (WAP four-disulfide core domain 3) | 3 | 0.0416 | 82.7 | inactive |
| OGFOD3 | 1 | 1.31 | 108 | inactive |
| OGFOD3 | 2 | -0.549 | 71 | inactive |
| OGFOD3 | 3 | -0.18 | 78.3 | inactive |

More reagents follow.
| Target gene | reagent no. | total luciferase, z-score | total luciferase, % of control | Outcome |
| --- | --- | --- | --- | --- |
| OR10K2 (olfactory receptor family 10 subfamily K member 2) | 1 | -0.192 | 78.1 | inactive |
| OR10K2 (olfactory receptor family 10 subfamily K member 2) | 2 | -1.55 | 51 | inactive |
| OR10K2 (olfactory receptor family 10 subfamily K member 2) | 3 | -0.0736 | 80.4 | inactive |
| SLC5A9 | 1 | 0.432 | 90.5 | inactive |
| SLC5A9 | 2 | -1.18 | 58.5 | inactive |
| SLC5A9 | 3 | -0.464 | 72.7 | inactive |
| LRRC3 (leucine rich repeat containing 3) | 1 | 0.708 | 96 | inactive |
| LRRC3 (leucine rich repeat containing 3) | 2 | -0.322 | 75.5 | inactive |
| LRRC3 (leucine rich repeat containing 3) | 3 | 1.13 | 104 | inactive |
| SUZ12 (SUZ12 polycomb repressive complex 2 subunit) | 1 | -0.00315 | 81.8 | inactive |
| SUZ12 (SUZ12 polycomb repressive complex 2 subunit) | 2 | -0.545 | 71 | inactive |
| SUZ12 (SUZ12 polycomb repressive complex 2 subunit) | 3 | -0.0585 | 80.7 | inactive |
| SLC25A44 | 1 | -2.92 | 23.9 | inactive |
| SLC25A44 | 2 | -0.107 | 79.8 | inactive |
| SLC25A44 | 3 | -0.536 | 71.2 | inactive |
| STX16 (syntaxin 16) | 1 | 3.42 | 150 | active |
| STX16 (syntaxin 16) | 2 | -0.744 | 67.1 | inactive |
| STX16 (syntaxin 16) | 3 | 2.25 | 127 | inactive |
| F9 (coagulation factor IX) | 1 | 1.51 | 112 | inactive |
| F9 (coagulation factor IX) | 2 | -0.128 | 79.3 | inactive |
| F9 (coagulation factor IX) | 3 | 0.382 | 89.5 | inactive |
